From the supplement of paper PMC10331698
± gives the standard deviation of the averaged measurements. Most entries show no effect beyond the scatter of the controls.

What was measured:
Experiment in all cases: level (log10 ratio to DMSO vehicle control); higher = higher biomarker level / cell amount than vehicle control
[1] = compound: OCC(F)(F)C(F)(F)C(F)(F)C(F)(F)C(F)(F)C(F)(F)F [6:1 Fluorotelomer alcohol] (in DMSO); details: 2200 nM
Method: (§1)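 BioMAP Diversity Plus panel of 12 human primary cell co-culture systems (3C, 4H, LPS, SAg, BT, BF4T, BE3C, CASM3C, HDF3CGF, KF3CT, MyoF, Mphg). Compounds were added 1 h before stimulation and left for 24 h (MyoF 48 h; BT 72 h for soluble read-outs or 6 d for IgG). Biomarkers were read by ELISA, cytotoxicity by SRB, PBMC viability and proliferation by Alamar Blue. Each well value was divided by the mean of 8 DMSO control wells on the same plate and log10 transformed; duplicate blinded samples were tested at 4 concentrations.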

[2] = compound: O=C(O)C(F)(OC(F)(F)C(F)(F)C(F)(F)F)C(F)(F)F [Ammonium perfluoro-2-methyl-3-oxahexanoate] (in Water)
Method: as §1

[3] = compound: O=C(O)CCC(F)(F)C(F)(F)C(F)(F)F [3:3 Fluorotelomer carboxylic acid] (in DMSO); details: 2200 nM
Method: as §1

[4] = compound: OCCCC(F)(F)C(F)(F)C(F)(F)C(F)(F)C(F)(F)C(F)(F)C(F)(F)C(F)(F)F [3-(Perfluorooctyl)propanol] (in DMSO); details: 2200 nM
Method: as §1

[5] = compound: O=C(O)C(F)(F)C(F)(F)C(F)(F)OC(F)(C(F)(F)F)C(F)(F)F [Perfluoro-4-isopropoxybutanoic acid] (in DMSO); details: 2200 nM
Method: as §1

[6] = compound: FC(F)(F)C(F)(F)C(F)(F)C(F)(F)CCI [1H,1H,2H,2H-Perfluorohexyl iodide] (in DMSO); details: 2200 nM
Method: as §1

Hexafluoroglutaric acid = compound: O=C(O)C(F)(F)C(F)(F)C(F)(F)C(=O)O [Hexafluoroglutaric acid] (in DMSO)
Method: as §1

[7] = compound: O=C(O)C(F)(OC(F)(F)C(F)(OC(F)(F)C(F)(OC(F)(F)C(F)(F)C(F)(F)F)C(F)(F)F)C(F)(F)F)C(F)(F)F [Perfluoro-(2,5,8-trimethyl-3,6,9-trioxadodecanoic)acid] (in DMSO); details: 370 nM
Method: as §1

[8] = compound: FC(F)(F)C(F)(F)CNCC(F)(F)C(F)(F)F [Bis(1H,1H-perfluoropropyl)amine] (in DMSO); details: 2200 nM
Method: as §1

[9] = compound: OCC(F)(F)C(F)(F)C(F)(F)C(F)F [1H,1H,5H-Perfluoropentanol] (in DMSO); details: 2200 nM
Method: as §1

[10] = compound: O=S(=O)(O)C(F)(F)C(F)(F)C(F)(F)C(F)(F)F [Perfluorobutanesulfonic acid] (in DMSO)
Method: as §1

[11] = compound: OCC(F)(F)OC(F)(F)C(F)(F)OC(F)(F)CO [1H,1H,8H,8H-Perfluoro-3,6-dioxaoctane-1,8-diol] (in DMSO); details: 2200 nM
Method: as §1

Perfluorohexanoic acid = compound: O=C(O)C(F)(F)C(F)(F)C(F)(F)C(F)(F)C(F)(F)F [Perfluorohexanoic acid] (in DMSO)
Method: as §1

[12] = compound: C=C(C)C(=O)OCCC(F)(F)C(F)(F)C(F)(F)C(F)(F)C(F)(F)C(F)(F)F [6:2 Fluorotelomer methacrylate] (in DMSO); details: 2200 nM
Method: as §1

[13] = compound: CNS(=O)(=O)C(F)(F)C(F)(F)C(F)(F)C(F)(F)C(F)(F)C(F)(F)C(F)(F)C(F)(F)F [N-Methylperfluorooctanesulfonamide] (in DMSO); details: 2200 nM
Method: as §1

[14] = compound: OCC(F)(F)C(F)(F)C(F)(F)C(F)(F)C(F)(F)C(F)(F)CO [1H,1H,8H,8H-Perfluorooctane-1,8-diol] (in DMSO); details: 2200 nM
Method: as §1

[15] = compound: FC(F)(F)COC(OCC(F)(F)F)OCC(F)(F)F [tris(Trifluoroethoxy)methane] (in DMSO); details: 2200 nM
Method: as §1

Row | Test System | level (log10) [1] | level (log10) ([2]; 2200 nM) | level (log10) ([2]; 6700 nM) | level (log10) ([2]; 20000 nM) | level (log10) ([2]; 60000 nM) | level (log10) [3] | level (log10) [4] | level (log10) [5] | level (log10) [6] | level (log10) (Hexafluoroglutaric acid; 2200 nM) | level (log10) (Hexafluoroglutaric acid; 6700 nM) | level (log10) (Hexafluoroglutaric acid; 20000 nM) | level (log10) (Hexafluoroglutaric acid; 60000 nM) | level (log10) [7] | level (log10) [8] | level (log10) [9] | level (log10) ([10]; 2200 nM) | level (log10) ([10]; 6700 nM) | level (log10) ([10]; 20000 nM) | level (log10) ([10]; 60000 nM) | level (log10) [11] | level (log10) (Perfluorohexanoic acid; 2200 nM) | level (log10) (Perfluorohexanoic acid; 6700 nM) | level (log10) (Perfluorohexanoic acid; 20000 nM) | level (log10) (Perfluorohexanoic acid; 60000 nM) | level (log10) [12] | level (log10) [13] | level (log10) [14] | level (log10) [15]
1 | BF4T:IL-1alpha | -0.047 ± 0.062 | 0.021 ± 0.0042 | 0.018 ± 0.03 | 0.0055 ± 0.036 | -0.0085 ± 0.021 | -0.0035 ± 0.019 | 0.006 ± 0.031 | -0.001 ± 0.0057 | -0.006 ± 0.016 | -0.0145 ± 0.026 | -0.0065 ± 0.015 | -0.0195 ± 0.0035 | -0.0045 ± 0.033 | 0.008 ± 0.0028 | 0.011 ± 0.027 | -0.007 ± 0.016 | 0.03 ± 0.03 | 0.0135 ± 0.00071 | 0.0135 ± 0.016 | 0.011 ± 0.016 | 0.0155 ± 0.021 | 0.003 ± 0.025 | -0.001 ± 0.0042 | -0.0035 ± 0.012 | 0.007 ± 0.0042 | -0.0035 ± 0.011 | 0.0115 ± 0.0064 | 0.012 ± 0.013 | -0.001 ± 0.016
2 | BF4T:Keratin 8/18 | 0.0175 ± 0.016 | -0.006 ± 0.037 | -0.0205 ± 0.0078 | -0.008 ± 0.035 | -0.022 ± 0.014 | 0.009 ± 0.017 | 0.0025 ± 0.03 | 0.0055 ± 0.015 | -0.003 ± 0.021 | 0.0035 ± 0.06 | -0.006 ± 0.013 | -0.0145 ± 0.015 | 0.0005 ± 0.00071 | 0.024 ± 0.0042 | 0.028 ± 0.024 | -0.0225 ± 0.015 | -0.0225 ± 0.032 | -0.0245 ± 0.028 | -0.0145 ± 0.011 | -0.0045 ± 0.015 | 0.013 ± 0.0042 | 0.012 ± 0.0085 | 0.017 ± 0.028 | 0.0165 ± 0.015 | -0.006 ± 0.037 | -0.0105 ± 0.0092 | -0.0165 ± 0.015 | -0.0125 ± 0.035 | 0.02 ± 0.04
3 | BF4T:MMP-1 | 0.004 ± 0.017 | 0.042 ± 0.037 | 0.031 ± 0.02 | 0.0105 ± 0.023 | 0.029 ± 0.011 | -0.0005 ± 0.013 | 0.0125 ± 0.023 | 0.0015 ± 0.0092 | 0.0165 ± 0.0021 | 0.008 ± 0.02 | 0.0035 ± 0.013 | 0.0215 ± 0.012 | 0.018 ± 0.0099 | 0.0065 ± 0.0078 | 0.0105 ± 0.021 | 0.0105 ± 0.015 | 0.001 ± 0.0071 | 0.0035 ± 0.0064 | -0.009 ± 0.013 | -0.0045 ± 0.00071 | 0.0195 ± 0.005 | 0.015 ± 0.0028 | 0.0005 ± 0.015 | -0.009 ± 0.0071 | -0.0005 ± 0.0078 | 0.014 ± 0.016 | 0.004 ± 0.021 | 0.0115 ± 0.015 | 0.0095 ± 0.0092
4 | BF4T:MMP-3 | -0.0055 ± 0.04 | 0.005 ± 0.0028 | 0.0335 ± 0.047 | 0.018 ± 0.0057 | 0.048 ± 0.014 | 0.0185 ± 0.037 | 0.018 ± 0.031 | 0.0215 ± 0.021 | 0.0385 ± 0.0035 | 0.0305 ± 0.084 | -0.0045 ± 0.0092 | -0.0125 ± 0.035 | 0.0175 ± 0.0021 | 0.0055 ± 0.039 | 0.0025 ± 0.04 | 0.005 ± 0.014 | 0.0335 ± 0.013 | 0.014 ± 0.0014 | 0.001 | 0.042 ± 0.033 | 0.0075 ± 0.056 | -0.0085 ± 0.0021 | 0.003 ± 0.024 | -0.0095 ± 0.00071 | 0.0295 ± 0.043 | 0.0205 ± 0.00071 | 0.0235 ± 0.00071 | 0.007 ± 0.0099 | 0.02 ± 0.048
